Drawing on patent US7605165B2, “Phenylalanine derivatives” (Ajinomoto Co., Inc., priority 2002, dated 2009), this text covers IC50 for one molecule.

Sequences of proteins named here, by UniProt entry; tags and fusion partners are left off. Residues count along the entry.
UniProt P13612, 34-1032 limits assumed: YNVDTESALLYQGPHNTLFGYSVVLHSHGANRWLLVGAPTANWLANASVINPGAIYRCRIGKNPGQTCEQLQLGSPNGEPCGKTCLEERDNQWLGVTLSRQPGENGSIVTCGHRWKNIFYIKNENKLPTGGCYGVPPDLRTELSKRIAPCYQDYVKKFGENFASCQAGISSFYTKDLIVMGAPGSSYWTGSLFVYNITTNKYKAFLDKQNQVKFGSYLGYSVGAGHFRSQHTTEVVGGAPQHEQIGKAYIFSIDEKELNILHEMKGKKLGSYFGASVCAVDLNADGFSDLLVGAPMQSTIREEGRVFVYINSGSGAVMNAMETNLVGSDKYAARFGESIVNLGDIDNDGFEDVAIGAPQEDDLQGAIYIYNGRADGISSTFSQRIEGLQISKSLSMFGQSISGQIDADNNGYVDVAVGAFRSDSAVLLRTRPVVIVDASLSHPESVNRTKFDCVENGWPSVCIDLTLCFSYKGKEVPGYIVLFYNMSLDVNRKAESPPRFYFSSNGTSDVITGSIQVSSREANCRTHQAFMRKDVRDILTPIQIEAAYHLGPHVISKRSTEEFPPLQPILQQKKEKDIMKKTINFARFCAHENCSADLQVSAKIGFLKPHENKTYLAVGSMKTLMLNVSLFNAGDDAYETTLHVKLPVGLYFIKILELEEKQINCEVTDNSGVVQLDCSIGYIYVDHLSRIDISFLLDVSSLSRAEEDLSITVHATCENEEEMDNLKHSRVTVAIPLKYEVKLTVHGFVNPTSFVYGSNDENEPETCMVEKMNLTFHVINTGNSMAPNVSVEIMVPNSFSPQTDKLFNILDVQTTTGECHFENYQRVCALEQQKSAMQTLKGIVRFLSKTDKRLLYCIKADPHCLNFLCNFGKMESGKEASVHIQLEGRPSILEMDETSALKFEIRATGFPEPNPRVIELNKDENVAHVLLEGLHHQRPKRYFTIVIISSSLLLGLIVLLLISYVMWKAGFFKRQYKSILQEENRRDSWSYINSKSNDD
UniProt P26010, 20-798 limits assumed: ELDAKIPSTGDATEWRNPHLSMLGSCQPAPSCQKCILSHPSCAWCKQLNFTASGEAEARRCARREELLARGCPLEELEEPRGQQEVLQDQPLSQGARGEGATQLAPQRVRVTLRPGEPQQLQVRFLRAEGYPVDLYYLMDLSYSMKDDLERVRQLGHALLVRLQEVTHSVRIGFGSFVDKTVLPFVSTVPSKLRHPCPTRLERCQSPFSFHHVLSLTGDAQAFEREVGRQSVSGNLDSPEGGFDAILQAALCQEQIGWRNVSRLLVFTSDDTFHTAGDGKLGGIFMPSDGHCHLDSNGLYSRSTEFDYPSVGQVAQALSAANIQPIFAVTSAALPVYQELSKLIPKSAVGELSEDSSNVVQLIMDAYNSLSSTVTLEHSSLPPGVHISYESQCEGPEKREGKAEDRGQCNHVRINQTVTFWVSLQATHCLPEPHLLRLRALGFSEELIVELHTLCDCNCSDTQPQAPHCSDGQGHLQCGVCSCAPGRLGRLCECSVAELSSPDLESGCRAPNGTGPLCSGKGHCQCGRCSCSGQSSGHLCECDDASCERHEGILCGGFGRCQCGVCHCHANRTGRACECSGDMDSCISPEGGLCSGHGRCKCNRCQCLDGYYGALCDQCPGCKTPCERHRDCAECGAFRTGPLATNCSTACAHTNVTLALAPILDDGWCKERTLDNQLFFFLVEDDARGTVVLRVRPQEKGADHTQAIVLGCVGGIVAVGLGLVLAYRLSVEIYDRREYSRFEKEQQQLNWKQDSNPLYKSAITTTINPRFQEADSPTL
UniProt P05556, 21-798 limits assumed: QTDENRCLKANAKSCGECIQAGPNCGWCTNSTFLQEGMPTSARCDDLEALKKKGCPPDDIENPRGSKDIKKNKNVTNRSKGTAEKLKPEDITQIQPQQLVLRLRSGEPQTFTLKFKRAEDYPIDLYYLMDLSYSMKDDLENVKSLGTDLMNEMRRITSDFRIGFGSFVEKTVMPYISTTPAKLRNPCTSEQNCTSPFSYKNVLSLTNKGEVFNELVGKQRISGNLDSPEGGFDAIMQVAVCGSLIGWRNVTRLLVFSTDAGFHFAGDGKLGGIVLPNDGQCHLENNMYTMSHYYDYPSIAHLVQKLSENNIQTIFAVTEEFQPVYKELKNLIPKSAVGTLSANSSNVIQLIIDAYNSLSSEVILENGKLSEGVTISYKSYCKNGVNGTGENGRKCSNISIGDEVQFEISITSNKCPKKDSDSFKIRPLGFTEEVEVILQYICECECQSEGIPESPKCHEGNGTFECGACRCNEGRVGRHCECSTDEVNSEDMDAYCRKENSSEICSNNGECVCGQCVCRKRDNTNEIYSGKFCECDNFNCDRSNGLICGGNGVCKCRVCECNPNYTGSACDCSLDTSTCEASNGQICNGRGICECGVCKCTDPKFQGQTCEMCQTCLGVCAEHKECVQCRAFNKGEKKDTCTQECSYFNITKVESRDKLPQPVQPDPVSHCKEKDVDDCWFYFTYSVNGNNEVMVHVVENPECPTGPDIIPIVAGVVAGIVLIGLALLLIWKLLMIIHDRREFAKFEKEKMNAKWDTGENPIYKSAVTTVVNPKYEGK

The structures appear in SMILES notation. The match of structure and compound is tentative.

For one assay, the target named is integrin α4β7 (Homo sapiens, UniProt P13612+P26010). Nature of the assay: Assessment of VCAM-1/α4β7 binding antagonistic activity (RPMI-8866 cells binding to VCAM-1). The following applies: read-out: integrin VCAM/α4 binding antagonistic activity (IC50) α4β7; RPMI-8866 human B lymphoma cells binding to recombinant human VCAM-1, binding buffer with 4 mM MnCl2.
The target of the next assay is integrin α4β1 (Homo sapiens, UniProt P05556+P13612). Nature of the assay: Assessment of VCAM-1/α4β1 binding antagonist activity (Jurkat cells binding to VCAM-1). The following applies: read-out: integrin VCAM/α4 binding antagonistic activity (IC50) α4β1; Jurkat human T cells binding to recombinant human VCAM-1.

Turning to `Cn1c(=O)n(-c2ccc(C[C@H](NC(=O)c3c(Cl)cccc3Cl)C(=O)O)cc2)c(=O)c2nccnc21`, the IC50 was found to be 2.3 nM at integrin α4β7 and 60 nM on integrin α4β1.
